Results from article PMC5148606.
Results are given in words; binding and its absence hold for the method and conditions named. Binding seen in cells or lysates may run through a third protein. Some binding calls cover weakened binding; strength is not graded here. Tags and fused reporters may be left off the sequences shown.

Tests used:
Test in all cases: co-IP; Sec24 immunoprecipitated from 2 mg yeast lysate (20 mM Hepes pH 7.4, 150 mM NaCl, 1% Triton X-100, protease and phosphatase inhibitors; with or without DSP cross-linker) with rabbit polyclonal anti-Sec24 serum and protein A-sepharose, 4°C; blotted with anti-myc for Atg9-13myc; cells in SMD or starved in SD-N (4 hr at 30°C; hrr25-5 2 hr at 37°C); ypt7∆, sec24 mutant, WT or hrr25-5 cells
[1] = molecular target: T1, Sec24 T325E/T328E (S. cerevisiae) (UniProt P40482)
T1 sequence: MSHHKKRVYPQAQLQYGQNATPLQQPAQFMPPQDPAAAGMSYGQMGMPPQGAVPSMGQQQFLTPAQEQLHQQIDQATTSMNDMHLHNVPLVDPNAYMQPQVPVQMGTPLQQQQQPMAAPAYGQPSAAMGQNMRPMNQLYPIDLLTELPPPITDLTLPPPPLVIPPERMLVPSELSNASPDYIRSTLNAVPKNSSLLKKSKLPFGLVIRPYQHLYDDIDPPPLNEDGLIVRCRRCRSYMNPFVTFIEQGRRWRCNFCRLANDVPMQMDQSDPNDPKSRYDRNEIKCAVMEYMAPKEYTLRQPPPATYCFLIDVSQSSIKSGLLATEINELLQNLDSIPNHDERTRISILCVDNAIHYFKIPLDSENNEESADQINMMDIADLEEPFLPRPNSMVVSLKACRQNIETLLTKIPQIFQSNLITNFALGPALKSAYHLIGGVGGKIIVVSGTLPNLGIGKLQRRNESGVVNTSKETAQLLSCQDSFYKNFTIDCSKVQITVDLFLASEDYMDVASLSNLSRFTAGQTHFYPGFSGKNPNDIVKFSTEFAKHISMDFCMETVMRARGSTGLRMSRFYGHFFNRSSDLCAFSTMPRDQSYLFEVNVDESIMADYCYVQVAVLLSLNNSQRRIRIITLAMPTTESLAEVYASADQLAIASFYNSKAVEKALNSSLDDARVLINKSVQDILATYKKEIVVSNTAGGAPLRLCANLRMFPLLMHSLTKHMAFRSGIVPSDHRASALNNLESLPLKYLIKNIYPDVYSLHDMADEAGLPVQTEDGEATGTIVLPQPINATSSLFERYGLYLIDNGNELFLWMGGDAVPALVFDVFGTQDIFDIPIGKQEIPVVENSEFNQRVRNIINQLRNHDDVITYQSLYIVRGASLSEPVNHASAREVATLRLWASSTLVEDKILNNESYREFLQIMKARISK

[2] = molecular target: T2, Sec24 (wild type, in yeast lysate) (S. cerevisiae) (UniProt P40482)
T2 sequence: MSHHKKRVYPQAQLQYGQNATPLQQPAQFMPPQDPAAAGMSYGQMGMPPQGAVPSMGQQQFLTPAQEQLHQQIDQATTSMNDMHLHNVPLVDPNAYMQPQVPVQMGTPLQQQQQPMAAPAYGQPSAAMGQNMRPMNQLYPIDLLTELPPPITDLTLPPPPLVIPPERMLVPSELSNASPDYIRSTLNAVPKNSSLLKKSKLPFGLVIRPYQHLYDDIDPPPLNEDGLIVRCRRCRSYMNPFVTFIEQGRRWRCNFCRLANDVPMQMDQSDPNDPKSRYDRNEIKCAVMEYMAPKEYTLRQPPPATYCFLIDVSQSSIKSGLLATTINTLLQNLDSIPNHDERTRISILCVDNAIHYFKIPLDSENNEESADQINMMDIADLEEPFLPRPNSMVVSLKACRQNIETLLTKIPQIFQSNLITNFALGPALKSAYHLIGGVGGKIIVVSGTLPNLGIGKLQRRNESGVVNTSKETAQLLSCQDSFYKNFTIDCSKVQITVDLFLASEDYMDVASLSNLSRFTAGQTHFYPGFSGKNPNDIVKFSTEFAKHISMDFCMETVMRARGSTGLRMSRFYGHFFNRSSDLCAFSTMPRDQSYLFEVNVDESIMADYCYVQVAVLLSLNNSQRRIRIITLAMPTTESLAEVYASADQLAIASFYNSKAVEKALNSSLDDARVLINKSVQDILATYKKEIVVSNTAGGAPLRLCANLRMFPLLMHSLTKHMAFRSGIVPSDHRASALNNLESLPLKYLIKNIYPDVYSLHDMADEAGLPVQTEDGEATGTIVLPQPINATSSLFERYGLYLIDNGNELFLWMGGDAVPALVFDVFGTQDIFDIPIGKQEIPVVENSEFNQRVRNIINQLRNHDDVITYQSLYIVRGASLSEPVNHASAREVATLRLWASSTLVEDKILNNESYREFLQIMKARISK

[3] = molecular target: T3, Sec24-T324E/T325E (S. cerevisiae) (UniProt P40482)
T3 sequence: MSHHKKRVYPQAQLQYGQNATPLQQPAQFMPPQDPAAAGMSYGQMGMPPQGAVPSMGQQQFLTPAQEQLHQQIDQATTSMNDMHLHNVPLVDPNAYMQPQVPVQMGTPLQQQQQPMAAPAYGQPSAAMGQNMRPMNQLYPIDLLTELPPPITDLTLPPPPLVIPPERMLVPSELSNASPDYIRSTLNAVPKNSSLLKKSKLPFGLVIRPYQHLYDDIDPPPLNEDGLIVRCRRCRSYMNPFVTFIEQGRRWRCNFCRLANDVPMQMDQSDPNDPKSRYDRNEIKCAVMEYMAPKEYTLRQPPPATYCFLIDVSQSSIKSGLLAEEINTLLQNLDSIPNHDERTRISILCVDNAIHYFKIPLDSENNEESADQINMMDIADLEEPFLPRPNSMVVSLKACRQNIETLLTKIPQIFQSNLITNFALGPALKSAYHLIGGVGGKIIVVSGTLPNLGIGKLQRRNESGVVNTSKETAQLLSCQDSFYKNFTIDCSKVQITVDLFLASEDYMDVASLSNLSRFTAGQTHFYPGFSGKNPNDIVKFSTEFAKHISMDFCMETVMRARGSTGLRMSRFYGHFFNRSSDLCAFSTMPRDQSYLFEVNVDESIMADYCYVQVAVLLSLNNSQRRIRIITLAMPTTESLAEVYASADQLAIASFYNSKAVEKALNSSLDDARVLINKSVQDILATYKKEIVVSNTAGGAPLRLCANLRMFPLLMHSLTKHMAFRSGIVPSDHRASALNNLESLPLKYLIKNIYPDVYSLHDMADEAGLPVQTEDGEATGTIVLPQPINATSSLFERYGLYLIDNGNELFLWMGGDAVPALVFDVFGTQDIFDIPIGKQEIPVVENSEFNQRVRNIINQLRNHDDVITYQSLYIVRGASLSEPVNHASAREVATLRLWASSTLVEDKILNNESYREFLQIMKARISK

Measured: binding

B1: Atg9-13myc (protein, UniProt Q12142 1-997)
chain: MERDEYQLPNSHGKNTFLSRIFGLQSDEVNPSLNSQEMSNFPLPDIERGSSLLHSTNDSREDVDENDLRVPESDQGTSTEEEDEVDEEQVQAYAPQISDGLDGDHQLNSVTSKENVLETEKSNLERLVEGSTDDSVPKVGQLSSEEEEDNEFINNDGFDDDTPLFQKSKIHEFSSKKSNTIEDGKRPLFFRHILQNNRPQRDTQKLFTSSNAIHHDKDKSANNGPRNINGNQKHGTKYFGSATQPRFTGSPLNNTNRFTKLFPLRKPNLLSNISVLNNTPEDRINTLSVKERALWKWANVENLDIFLQDVYNYYLGNGFYCIILEKILNICTLLFVVFVSTYMGHCVDYSKLPTSHRVSDIIIDKCYSNSITGFTKFFLWMFYFFVILKIVQLYFDVQKLSELQNFYKYLLNISDDELQTLPWQNVIQQLMYLKDQNAMTANVVEVKAKNRIDAHDVANRIMRRENYLIALYNSDILNLSLPIPLFRTNVLTKTLEWNINLCVMGFVFNESGFIKQSILKPSQREFTREELQKRFMLAGFLNIILAPFLVTYFVLLYFFRYFNEYKTSPGSIGARQYTPIAEWKFREYNELYHIFKKRISLSTTLANKYVDQFPKEKTNLFLKFVSFICGSFVAILAFLTVFDPENFLNFEITSDRSVIFYITILGAIWSVSRNTITQEYHVFDPEETLKELYEYTHYLPKEWEGRYHKEEIKLEFCKLYNLRIVILLRELTSLMITPFVLWFSLPSSAGRIVDFFRENSEYVDGLGYVCKYAMFNMKNIDGEDTHSMDEDSLTKKIAVNGSHTLNSKRRSKFTAEDHSDKDLANNKMLQSYVYFMDDYSNSENLTGKYQLPAKKGYPNNEGDSFLNNKYSWRKQFQPGQKPELFRIGKHALGPGHNISPAIYSTRNPGKNWDNNNNGDDIKNGTNNATAKNDDNNGNNDHEYVLTESFLDSGAFPNHDVIDHNKMLNSNYNGNGILNKGGVLGLVKEYYKKSDVGR
binds: all assays above
